Our source for the binding values is patent US20160024210A1 (AstraZeneca / MedImmune, published 2016).

Where a chain is given by its changes, count along the chain named. These are yes or no findings as the source states them, for the method shown. Binding can be weak; no strength is given.

The experiment concerns the target cynomolgus monkey H7CR (cynomolgus monkey). Nature of the experiment: flow cytometry histograms of cynomolgus monkey blood cell subsets. For orientation: In flow cytometry, cells or beads pass a laser one at a time.

B1: hamster anti-human H7CR antibody clone 4.5 (antibody, V domains shown)
VH: QIQLQESGPGLVKPSQSLSLTCSVTGFSITTGGYYWNWIRQFPGKKLEWMGYIYTSGRTSYNPSLKSRISITRDTSKNQFFLQLNSMTTEDTATYYCADMADKGGWFAYWGQGTLVTVSS
VL: DIVMTQSPSSLAVSAGEKVTISCLSSQSLFSSNTKRNYLNWYLQKPGQSPKLLIYHASTRLTGVPGRFIGSGSGTDFTLTVSTVQAEDLGDYFCQQHYETPLTFGDGTRLEIK
With B1, the binding entry is “binds”.

B2: hamster anti-human H7CR antibody clone 7.8 (antibody, V domains shown)
VH: B1 VH with T55S, M87V, A108D
VL: B1 VL with A12T, K35N, N40S, K45R, E87G, E99V
notes: Hamster monoclonal antibody; also called H7CR7.8
As to B2, the binding entry is recorded as “binds”.
